These are yes or no findings as the source states them, for the method shown. Binding seen in cells or lysates may run through a third protein. Some binding calls cover weakened binding; strength is not graded here.
Molecular target: FLAG-FBXW7 (F-Box/WD Repeat-Containing Protein 7) (UniProt Q969H0)
Assay: co-IP; 293-T cells transfected 48 h with FLAG-FBXW7 / MYC-ACLY plasmids; RIPA lysate; overnight at 4°C with IgG or FLAG or MYC antibody, Protein A/G magnetic beads; Western blot

Chains of the proteins cited; added tags and fusions are not shown.
UniProt Q969H0: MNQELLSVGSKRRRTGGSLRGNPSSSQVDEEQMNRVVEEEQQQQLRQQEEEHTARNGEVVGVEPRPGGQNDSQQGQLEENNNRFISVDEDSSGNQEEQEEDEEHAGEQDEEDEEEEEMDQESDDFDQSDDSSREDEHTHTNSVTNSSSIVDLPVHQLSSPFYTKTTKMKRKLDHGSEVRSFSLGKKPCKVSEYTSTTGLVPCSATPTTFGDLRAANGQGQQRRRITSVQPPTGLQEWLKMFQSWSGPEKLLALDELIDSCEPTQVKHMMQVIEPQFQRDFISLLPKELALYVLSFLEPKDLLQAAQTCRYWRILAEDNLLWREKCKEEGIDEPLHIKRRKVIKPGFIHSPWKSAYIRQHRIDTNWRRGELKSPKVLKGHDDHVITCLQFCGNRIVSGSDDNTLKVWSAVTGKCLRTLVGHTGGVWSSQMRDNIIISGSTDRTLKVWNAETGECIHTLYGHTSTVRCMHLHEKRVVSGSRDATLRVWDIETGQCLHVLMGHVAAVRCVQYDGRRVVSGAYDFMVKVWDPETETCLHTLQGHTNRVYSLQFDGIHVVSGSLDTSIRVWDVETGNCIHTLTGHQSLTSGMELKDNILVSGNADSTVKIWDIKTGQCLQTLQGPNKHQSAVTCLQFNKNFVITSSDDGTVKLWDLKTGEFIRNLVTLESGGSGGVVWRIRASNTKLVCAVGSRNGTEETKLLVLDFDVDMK
UniProt P53396: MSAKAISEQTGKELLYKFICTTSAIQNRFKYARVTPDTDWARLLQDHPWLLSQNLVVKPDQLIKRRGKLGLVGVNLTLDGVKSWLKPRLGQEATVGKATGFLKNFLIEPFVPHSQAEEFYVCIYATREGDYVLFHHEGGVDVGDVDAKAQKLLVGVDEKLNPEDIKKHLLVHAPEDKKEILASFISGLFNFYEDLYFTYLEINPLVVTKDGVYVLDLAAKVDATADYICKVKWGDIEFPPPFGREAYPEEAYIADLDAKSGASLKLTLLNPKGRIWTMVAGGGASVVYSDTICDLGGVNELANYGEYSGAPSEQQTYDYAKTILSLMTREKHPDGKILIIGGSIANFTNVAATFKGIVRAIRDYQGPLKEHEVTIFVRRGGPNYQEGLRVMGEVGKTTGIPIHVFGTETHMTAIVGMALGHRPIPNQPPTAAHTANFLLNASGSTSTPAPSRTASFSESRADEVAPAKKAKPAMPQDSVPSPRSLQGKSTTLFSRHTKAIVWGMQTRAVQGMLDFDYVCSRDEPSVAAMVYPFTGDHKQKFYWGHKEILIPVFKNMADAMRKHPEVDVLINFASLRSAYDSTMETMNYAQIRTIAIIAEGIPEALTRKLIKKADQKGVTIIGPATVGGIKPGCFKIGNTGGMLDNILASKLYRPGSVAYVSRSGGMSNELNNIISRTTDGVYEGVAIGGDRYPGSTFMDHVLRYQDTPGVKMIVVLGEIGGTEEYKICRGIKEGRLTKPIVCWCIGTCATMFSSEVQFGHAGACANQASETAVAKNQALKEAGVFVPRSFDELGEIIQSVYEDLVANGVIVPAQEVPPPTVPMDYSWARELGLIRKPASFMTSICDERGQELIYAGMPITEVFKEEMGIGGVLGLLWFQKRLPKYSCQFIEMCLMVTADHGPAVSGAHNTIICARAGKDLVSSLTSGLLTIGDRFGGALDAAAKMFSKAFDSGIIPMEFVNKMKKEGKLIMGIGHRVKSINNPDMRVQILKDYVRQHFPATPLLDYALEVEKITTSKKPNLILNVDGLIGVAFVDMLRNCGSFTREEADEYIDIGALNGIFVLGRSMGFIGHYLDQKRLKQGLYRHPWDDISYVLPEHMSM

Substance: MYC-ACLY (ATP Citrate Lyase) (from UniProt P53396 1-1101)
- binding: binds
